{"source": "PubChem BioAssay AID540256", "about": "(National Center for Advancing Translational Sciences (NCATS), 2011)", "note": "In all, about 300,000 compounds went through this assay and about 3,700 (1.2%) were called active. Inconclusive results, whose numbers are uncertain, are shown with a selection of clear calls. Calls follow the shape of the full dose curve; tested in HEK293 cells. Potencies of inconclusive entries are doubtful fits and often do not repeat. % is scaled to controls: 0 for no effect and ±100 for the full control effect; potency is read from the fitted curve at half-maximal effect."}
{"experiment": "qHTS for Inhibitors of binding or entry into cells for Lassa Virus; also: nearly all actives have a fitted effect of over 50% in size", "conditions": "Lassa virus pseudotype entry inhibition, cell reporter; activity change, negative = inhibition: at 37.9 µM (top of the series) unless noted"}
{"compound": "O=C(O)c1c(-c2ccccc2)oc2ccc(OCc3c(F)cccc3Cl)cc12", "Potency": "inconclusive: 35.5 µM [inhibitor, single point]"}
{"compound": "Clc1ccc(CNc2nc(CN3CCOCC3)nc3scc(-c4ccccc4)c23)cc1", "Potency": "inconclusive: 0.0651 µM [inhibitor, full curve, poor fit]"}
{"compound": "CCSc1ncc(Cl)c(C(=O)Nc2c(C(=O)Nc3ccccc3)oc3ccccc23)n1", "Potency": "inconclusive: 35.5 µM [inhibitor, single point]"}
{"compound": "O=C(O)c1cc(N/N=C/c2c(O)ccc3ccccc23)ccc1Cl", "Potency": "inconclusive: 10 µM [inhibitor, partial curve, poor fit]"}
{"compound": "CN(C)S(=O)(=O)c1cccc(NC(=O)CSc2nc3c(cc2C#N)C(=O)CC(C)(C)C3)c1", "Potency": "inconclusive: 10 µM [inhibitor, partial curve, poor fit]"}
{"compound": "CCC(C)(C)NC(=O)C(c1ccc(F)cc1)N(Cc1cccc(OC)c1)C(=O)c1cnccn1", "note": "(stereo not drawn)", "activity change, negative = inhibition": "inactive: -3.23% [at 46.1 µM]"}
{"compound": "COc1ccc(N(C)S(=O)(=O)c2cccc(C(=O)N3CCN(Cc4ccc5c(c4)OCO5)CC3)c2)cc1", "Potency": "inconclusive: 11.2 µM [inhibitor, partial curve, poor fit]"}
{"compound": "COc1cccc(CNC(=O)CN2C(=O)N(c3ccc(C)cc3C)S(=O)(=O)c3ccccc32)c1OC", "Potency": "inconclusive: 10 µM [inhibitor, partial curve, poor fit]"}
{"compound": "Cc1ccc(NC(=O)CCNS(=O)(=O)c2ccc3c(c2)oc(=O)n3C)c(C)c1", "activity change, negative = inhibition": "inactive: -23.4%"}
{"compound": "O=C(NC(=S)Nc1ccc(N2CCOCC2)cc1)c1ccc2c(c1)OCCO2", "Potency": "inconclusive: 13 µM [inhibitor, partial curve, poor fit]"}
{"compound": "Cc1ccc(C(=O)NCc2ccccc2F)cc1S(=O)(=O)N1CCCC1", "Potency": "inconclusive: 12.6 µM [inhibitor, partial curve, poor fit]"}
{"compound": "Fc1ccc(N2CCN(c3nc(-c4ccco4)cc(C(F)(F)F)n3)CC2)cc1", "activity change, negative = inhibition": "inactive: -42.5%"}
{"compound": "CCN(CC)C(=O)Cn1c(=O)n(CC2CCC(C(=O)NC)CC2)c(=O)c2sccc21", "note": "(stereo not drawn)", "Potency": "inconclusive: 1.58 µM [activator, partial curve, poor fit]"}
{"compound": "O=C(Nc1nc2ccccc2n1Cc1ccccc1)c1ccco1", "activity change, negative = inhibition": "inactive: -21.6%"}
{"compound": "COc1cccc(CN(C)C(=O)c2ccc3c(=O)n4c(nc3c2)CCC4)c1OC", "Potency": "inconclusive: 28.2 µM [activator, single point]"}
{"compound": "CC(=O)NC(c1ccc2ccccc2c1)c1ccc2cccnc2c1O", "note": "(stereo not drawn)", "Potency": "inconclusive: 0.891 µM [inhibitor, full curve]"}
{"compound": "O=c1[nH]c2ccccc2n1CCCSCCCn1c(=O)[nH]c2ccccc21", "Potency": "inconclusive: 32.6 µM [inhibitor, single point]"}
{"compound": "CC(=O)c1cccc(Nc2ccc(-c3ccccc3F)nn2)c1", "activity change, negative = inhibition": "inactive: -22.2%"}
{"compound": "CCCC(=O)N1CCc2cc(OC)c(OC)cc2C1COc1ccc(C(=O)OC)cc1", "note": "(stereo not drawn)", "Potency": "inconclusive: 35.5 µM [inhibitor, single point]"}
{"compound": "CCCC(C(=O)O)n1c(O)c(C=C2N=c3ccccc3=N2)sc1=S", "note": "(stereo not drawn)", "activity change, negative = inhibition": "inactive: 3.12% [at 46.1 µM]"}
{"compound": "CCOc1ccccc1NS(=O)(=O)N(C)C", "activity change, negative = inhibition": "inactive: 14.7%"}
{"compound": "NS(=O)(=O)c1ccc(NC(=O)COC(=O)C2CC(=O)N(Cc3ccccc3)C2)cc1", "note": "(stereo not drawn)", "activity change, negative = inhibition": "inactive: -20.7% [at 46.1 µM]"}
{"compound": "Cc1cc(OCC(=O)O/N=C(\\N)c2ccccc2)ccc1Br", "Potency": "inconclusive: 35.5 µM [activator, single point]"}
{"compound": "O=C(/C=C/c1c(F)cccc1Cl)Nc1nc2ccccc2[nH]1", "Potency": "inconclusive: 20.6 µM [activator, partial curve, poor fit]"}
{"compound": "CCOc1ccccc1C(=O)N/N=C/c1coc2ccc(Cl)cc2c1=O", "Potency": "inconclusive: 11.2 µM [inhibitor, partial curve]"}
{"compound": "CN(CC(=O)Nc1cccc(F)c1)C(=O)CSc1ccc(Br)cc1", "Potency": "inconclusive: 15.8 µM [inhibitor, partial curve, poor fit]"}
{"compound": "O=c1[nH]c(C(Cl)Cl)nc2sc3c(c12)CCN(Cc1ccccc1)C3", "Potency": "inconclusive: 35.5 µM [inhibitor, single point]"}
{"compound": "Nc1nc(-c2ccccc2)ns1", "activity change, negative = inhibition": "inactive: 2.77%"}
{"compound": "Oc1ccc(NC(=S)N=Nc2c(O)[nH]c3ccc(Br)cc23)cc1", "Potency": "active: 11.2 µM"}
{"compound": "NC(=O)C1=C(c2ccccc2)c2ccccc2C1=O", "Potency": "inconclusive: 7.08 µM [inhibitor, partial curve, poor fit]"}
{"compound": "CCc1ccc(C(=O)C(C)OC(=O)CNS(=O)(=O)c2ccc(C)cc2)cc1", "note": "(stereo not drawn)", "Potency": "inconclusive: 3.55 µM [inhibitor, single point]"}
{"compound": "CC1(c2ccc(OC(F)F)cc2)NC(=O)N(CC(=O)Nc2ccc(N3CCCCC3)cc2)C1=O", "note": "(stereo not drawn)", "Potency": "inconclusive: 8.91 µM [inhibitor, partial curve, poor fit]"}
{"compound": "O=C(/C=C/c1ccccc1)Nc1ccc(Cl)cn1", "Potency": "inconclusive: 7.08 µM [inhibitor, partial curve, poor fit]"}
{"compound": "Cc1cc(C)cc(NC(=O)C2CCCN2S(=O)(=O)c2ccc3nc(-c4ccccc4)[nH]c3c2)c1", "note": "(stereo not drawn)", "activity change, negative = inhibition": "inactive: -15% [at 46.1 µM]"}
{"compound": "C=CCn1c(O)c(C(CC)=Nc2ccc3c(c2)CCC3)c(=O)[nH]c1=O", "Potency": "active: 0.891 µM"}
{"compound": "CCC(NC(=O)c1ccc(C#CC2(O)CCCCC2)cc1)C(=O)O", "note": "(stereo not drawn)", "activity change, negative = inhibition": "inactive: 10.2%"}
{"compound": "CCN(CC)S(=O)(=O)c1ccc(NC2=NS(=O)(=O)c3ccccc32)cc1", "activity change, negative = inhibition": "inactive: -9.81%"}
{"compound": "CCOC(=O)N1CCN(C(=O)c2ccccc2NS(=O)(=O)c2ccc(C)cc2)CC1", "Potency": "inconclusive: 12.6 µM [inhibitor, single point]"}
{"compound": "O=C(COc1ccc(/C=N/NC(=O)c2cc3ccccc3o2)cc1Br)Nc1ccccc1", "Potency": "inconclusive: 17.8 µM [inhibitor, single point]"}
{"compound": "S=C(Nc1cccnc1)NC1CCCCCCC1", "Potency": "inconclusive: 1 µM [inhibitor, single point]"}
{"compound": "Cc1cc(C)cc(OCCCn2c(-c3ccc(Cl)cc3)nc3ccccc3c2=O)c1", "Potency": "inconclusive: 1 µM [activator, full curve, poor fit]"}
{"compound": "O=C(NCc1ccncc1)C(F)(F)C(F)(F)C(=O)NCc1ccncc1", "activity change, negative = inhibition": "inactive: 10.7%"}
{"compound": "CC(C)=CCCC(C)CN1CCC(n2nccc2NC(=O)C2CCCC2)CC1", "note": "(stereo not drawn)", "Potency": "inconclusive: 35.5 µM [activator, single point]"}
